Data published in patent publication US20260092920A1 (FIBROINOVA BIOMEDICAL TECHNOLOGY GUANGZHOU, published 2026).
These are yes or no findings as the source states them, for the method shown. Some binding calls cover weakened binding; strength is not graded here. For part of these data: Sequences can lack the tags named with a protein.

T1: His-tagged extracellular domain of antigen DDR2 (human) (UniProt Q16832)
T1 sequence (looked up): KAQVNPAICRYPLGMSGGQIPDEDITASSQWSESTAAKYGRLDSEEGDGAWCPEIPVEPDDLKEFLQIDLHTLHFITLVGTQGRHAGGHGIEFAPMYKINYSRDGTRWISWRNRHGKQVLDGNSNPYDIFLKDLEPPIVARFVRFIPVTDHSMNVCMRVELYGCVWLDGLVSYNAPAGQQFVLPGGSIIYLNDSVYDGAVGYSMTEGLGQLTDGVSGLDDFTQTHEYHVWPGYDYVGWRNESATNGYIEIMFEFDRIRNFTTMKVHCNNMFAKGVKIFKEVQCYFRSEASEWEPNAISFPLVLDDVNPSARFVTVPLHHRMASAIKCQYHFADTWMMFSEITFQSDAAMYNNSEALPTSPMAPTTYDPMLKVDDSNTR

T2: DDR2 in the brain tissue of model mice (mouse) (UniProt Q62371)
T2 sequence (looked up): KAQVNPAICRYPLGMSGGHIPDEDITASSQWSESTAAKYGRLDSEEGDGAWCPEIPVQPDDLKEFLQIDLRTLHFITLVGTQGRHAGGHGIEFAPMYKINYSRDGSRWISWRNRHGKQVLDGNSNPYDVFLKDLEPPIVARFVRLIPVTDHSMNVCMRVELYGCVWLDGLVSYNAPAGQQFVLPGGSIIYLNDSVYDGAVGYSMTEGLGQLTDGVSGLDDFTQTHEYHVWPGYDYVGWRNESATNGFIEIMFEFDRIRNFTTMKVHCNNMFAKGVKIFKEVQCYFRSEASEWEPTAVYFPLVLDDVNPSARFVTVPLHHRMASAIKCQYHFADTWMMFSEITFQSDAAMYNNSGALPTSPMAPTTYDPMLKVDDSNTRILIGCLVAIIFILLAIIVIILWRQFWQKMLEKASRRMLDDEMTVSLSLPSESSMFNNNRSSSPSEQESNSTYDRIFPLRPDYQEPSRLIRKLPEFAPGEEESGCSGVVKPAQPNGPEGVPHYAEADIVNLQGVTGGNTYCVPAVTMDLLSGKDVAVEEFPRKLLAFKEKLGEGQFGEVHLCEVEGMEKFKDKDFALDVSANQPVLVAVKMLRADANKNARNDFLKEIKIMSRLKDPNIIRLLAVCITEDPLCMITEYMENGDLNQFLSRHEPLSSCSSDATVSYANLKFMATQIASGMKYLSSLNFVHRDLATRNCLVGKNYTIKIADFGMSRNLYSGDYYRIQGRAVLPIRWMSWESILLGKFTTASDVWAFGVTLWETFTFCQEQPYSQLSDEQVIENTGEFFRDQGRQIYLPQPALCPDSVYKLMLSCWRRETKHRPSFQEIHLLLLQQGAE


Assays:
[1] = molecular target: T1, His-tagged extracellular domain of antigen DDR2 (human); test: BLI (ForteBio), His-tagged DDR2 extracellular domain captured on Ni-NTA sensors, nanobody in solution
[2] = molecular target: T2, DDR2 in the brain tissue of model mice (mouse); test: in-vivo fluorescence imaging after tail vein injection, ALS (Optn knockout) mouse model
[3] = molecular target: T2, DDR2 in the brain tissue of model mice (mouse); test: in-vivo fluorescence imaging after tail vein injection, APP/PS1 AD mouse model

Row | binding [1] | binding [2] | binding [3] | Binder
1 | binds | – | – | DDR2 nanobody 1A12 (VHH, VHH of an alpaca heavy chain antibody raised against the human DDR2 extracellular domain; Expressed and purified; also called Nb-DDR2; 1A12-VHH) VHH: EVQLVESGGGLVQPGGSLRLSCAASGYILSPNVMGWFRQAPGKGRELVAAISWGDGRTYYPDSVEGRFTISRDNAKRMVYLQMNSLRAEDTAVYYCAASRKGYPSTRSDPYNYWGQGTQVTVSS
2 | – | binds | binds | DDR2 nanobody 1A12 labeled with indocyanine green (ICG) (VHH, indocyanine green (ICG) coupled with ICG-NHS; labeled residues not stated) VHH: EVQLVESGGGLVQPGGSLRLSCAASGYILSPNVMGWFRQAPGKGRELVAAISWGDGRTYYPDSVEGRFTISRDNAKRMVYLQMNSLRAEDTAVYYCAASRKGYPSTRSDPYNYWGQGTQVTVSS
